Percent effect of library compounds

Measurements from “University of Dundee, Small-Polar-MMV Screening Library” (2021), ChEMBL document CHEMBL3988442.

T. brucei: 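Whole-parasite assay of Trypanosoma brucei over 72 hours; the read-out is not stated. Concentration: 30 µM. Higher reads as stronger inhibition (inferred: compounds with an IC50 in retests scored well above the rest). Values scatter widely below zero; nearly all retest evidence comes from the higher of the two concentrations used. About 64,000 compounds were tested under these conditions; 1.5% (about 940) showed 50% or more at least once.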
Toxoplasma: 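Assay of Toxoplasma gondii numbers, read through their beta-galactosidase reporter with a colour substrate. Tested at 10 µM. Higher reads as fewer parasites (inferred from which compounds were picked for retests). About 67,000 compounds were tested under these conditions; 0.38% (about 260) showed 50% or more at least once.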

Values are the deposited “Percent Effect”, in %.
The record does not define 0% and 100%; most values in the screen are far below 50% and negative numbers occur (in some assays of this library far below -100).
This is an unselected part of the compounds tested.

{"compound": "Cn1ncc2c1CN(Cc1cccnc1)CC2COCC1CC1.O=C(O)C(F)(F)F.O=C(O)C(F)(F)F.O=C(O)C(F)(F)F", "stereo": "centres undefined", "T. brucei": 25.79, "Toxoplasma": 13.49}
{"compound": "Cc1nc(-c2cccnc2)ncc1C(=O)N1CCCC(N(C)C)CC1", "stereo": "centres undefined", "T. brucei": -7.515, "Toxoplasma": 6.992}
{"compound": "[H][C@]12CC[C@]([H])(CN(Cc3cscn3)C1)N(C(=O)Cc1ccccc1OC)C2", "T. brucei": -5.021, "Toxoplasma": -1.48}
{"compound": "Cc1cccc(C(=O)NC2CCN(c3cnn(C)c3)C2=O)c1C", "stereo": "centres undefined", "T. brucei": -26.38, "Toxoplasma": -3.652}
{"compound": "Nc1cc(CCC2CN(Cc3ccc4cc[nH]c4c3)CCO2)ccn1", "stereo": "centres undefined", "T. brucei": 35.21, "Toxoplasma": 6.923}
{"compound": "COc1cccc2c1OCC(NCc1cnn(-c3ccccc3)c1)C2", "stereo": "centres undefined", "T. brucei": -28.7, "Toxoplasma": 0.7551}
{"compound": "N#Cc1c[nH]nc1NCc1ccc2c(c1)OCO2", "T. brucei": -6.469, "Toxoplasma": -2.121}
{"compound": "CN(Cc1ccccn1)C(=O)c1nn(C)c2c1CCN(CC1CC1)C2.O=C(O)C(F)(F)F.O=C(O)C(F)(F)F.O=C(O)C(F)(F)F", "T. brucei": -78.69, "Toxoplasma": 0.3723}
{"compound": "NC(=O)c1ccnc(N2CCN(Cc3ccc(F)cc3Cl)CC2)c1", "T. brucei": -9.562, "Toxoplasma": -6.827}
{"compound": "CC(=O)c1cccc(OCCCC(=O)N(C)Cc2cnn(C)c2)c1", "T. brucei": -103.7, "Toxoplasma": -0.6321}
{"compound": "Cc1nc(C(C)C)cc(N2CCC3(CCC(=O)N(CC4CC4)C3)CC2)n1", "T. brucei": -32.46, "Toxoplasma": 15.13}
{"compound": "CC(C)CC(NC(=O)C1=CCCC1)C(=O)N1CCC(CO)CC1", "stereo": "centres undefined", "T. brucei": -9.411, "Toxoplasma": -10.52}
{"compound": "O=C(NCCCn1ccnc1)c1cccnc1OCC(F)(F)F", "T. brucei": -10.42, "Toxoplasma": -0.3496}
{"compound": "[H][C@]12CCCCN1CCC[C@@]2(O)CN1CCC(O)(Cn2ccnc2)CC1", "T. brucei": -2.838, "Toxoplasma": -0.6383}
{"compound": "CCNC(=O)NC[C@H]1COCc2nc3cc(OC)ccc3n21", "T. brucei": 86.68, "Toxoplasma": -0.1287}
{"compound": "COc1ccc(CN(C)[C@@H]2CN(C(=O)c3cccnc3)C[C@H]2O)cc1", "T. brucei": 8.891, "Toxoplasma": 5.691}
{"compound": "Cc1c[nH]c(CN2CCCCC2CCN(C)C)c(C)c1=O", "stereo": "centres undefined", "T. brucei": -64.34, "Toxoplasma": 19.25}
{"compound": "Cc1ccc(-c2nc(CC(=O)NCC(C)N3CCOCC3)cs2)o1", "stereo": "centres undefined", "T. brucei": -17.07, "Toxoplasma": -4.411}
{"compound": "CC(=O)N1CC(Cc2nccc3ccn(C)c23)C1", "T. brucei": 8.736, "Toxoplasma": -3.272}
{"compound": "COc1ccccc1C(=O)N1CC(=O)N(CC(C)C)CC(O)C1", "stereo": "centres undefined", "T. brucei": -21.63, "Toxoplasma": -18.68}
{"compound": "COCCN1Cc2ccccc2C2(CCN(C(=O)c3ccco3)CC2)C1", "T. brucei": -8.487, "Toxoplasma": -9.297}
{"compound": "CCN(CC)c1ccc(C(=O)NCC2(C(N)=O)CCOCC2)cn1", "T. brucei": -69.68, "Toxoplasma": 4.966}
{"compound": "O=S(=O)(Nc1ccc(N2CCOCC2)cn1)c1ccc(F)cc1", "T. brucei": -76.03, "Toxoplasma": -2.259}
{"compound": "Cc1nc(C(C)C)sc1C(=O)N(C)Cc1cnn(C)c1", "T. brucei": -15.42, "Toxoplasma": -2.727}
{"compound": "COC(=O)C1CCN(C(=O)c2nnc3ccc(Cl)cc3n2)CC1", "T. brucei": -10.02, "Toxoplasma": 3.024}
{"compound": "CC(C)Cc1cc(NC(=O)c2ccccc2F)n(C)n1", "T. brucei": -10.14, "Toxoplasma": -7.228}
{"compound": "O=C(O)C(F)(F)F.O=C1CC2(CCN(CC3CC3)C2)CN1c1ccc2c(c1)OCO2", "stereo": "centres undefined", "T. brucei": -13.62, "Toxoplasma": -16.09}
{"compound": "Cn1nc(C2CC2)c2c1NC(=O)CC2c1ccc(CN2CCCCC2)s1", "stereo": "centres undefined", "T. brucei": 0.7353, "Toxoplasma": 4.092}

Some entries from above, unchanged:

{"compound": "CCN(CC)c1ccc(C(=O)NCC2(C(N)=O)CCOCC2)cn1", "T. brucei": -69.68, "Toxoplasma": 4.966}
{"compound": "Cc1nc(C(C)C)sc1C(=O)N(C)Cc1cnn(C)c1", "T. brucei": -15.42, "Toxoplasma": -2.727}